# Source: article PMC8243547 (BMC Complementary Medicine and Therapies, 2021)
# How the values were obtained:
# [1] = system: African green monkey normal kidney Vero cells; assay: Resazurin-based cytotoxicity assay, Vero cells; conditions: for SI Vero Pf3D7: CC50 Vero / EC50 Pf3D7; for SI Vero (PfDd2): CC50 Vero / EC50 PfDd2
# Protocol: (§1) The cytotoxicity assay was performed using the African green monkey normal kidney Vero cells (ATCC CRL 1586) and murine macrophages Raw 264.7 cells (ATCC #TIB-71) obtained from the American Type Culture Collection (ATCC).
# (§2) The cytotoxicity of active natural products was assessed according to the protocol described by. The African green monkey normal kidney Vero cells (ATCC CRL 1586) and murine macrophages Raw 264.7 cells (ATCC #TIB-71) were maintained in T-25 flasks (Corning Incorporated, USA) using complete Dulbecco’s Modified Eagle’s Medium (Sigma-Aldrich, Germany), supplemented with, 10% Fetal Bovine Serum (Sigma-Aldrich, Germany), 0.2% sodium bicarbonate (w/v) (Sigma-Aldrich, Germany) and 1% (v/v) Penicillin-Streptomycin (Sigma-Aldrich, Germany). The cells were kept at 37 °C for 72 h in 5% CO2 incubator, and the medium was renewed each 72 h and the cell density monitored under the inverted fluorescent microscope Etaluma 520 (Etaluma, USA) until the formation of a monolayer. Confluent culture (nearly 90%) was trypsinized (0.05% Trypsin-EDTA, Sigma-Aldrich, Germany), then centrifuged at 1800 rpm for 5 min and the resulting pellet was re-suspended in culture medium. Cells at 10^4cells per well were seeded (100 μL) in 96-well culture plates (Costar, USA) and incubated overnight to allow cell adhesion. Thereafter, 10 μL of serially diluted extracts, fractions (≤200 μg/mL), and compounds (≤50 μg/mL) were added to plate wells in duplicate. The plates were incubated in a humidified and 5% CO2 atmosphere at 37 °C for 48 h. Podophyllotoxin at 20 μM was added as positive control and wells containing untreated cells were included as 100% growth control. Ten microliters of resazurin stock solution (0.15 mg/mL in sterile PBS), were added to each well, and incubated for an additional 4 h. Fluorescence was then read using a Magelan Infinite M200 fluorescence multi-well plate reader (Tecan) with excitation and emission wavelengths at 530 and 590 nm, respectively. The percentage of cell viability was calculated with regard to the negative control, and subsequently used to determine the concentration that reduced 50% of cell viability (CC50) by non-linear regression using the GraphPad Prism software version 5.0 (San Diego, California) as described above. Selectivity indices (SI = CC50/EC50, defining the balance between cytotoxicity and antiplasmodial activity) were calculated for each test substance.
# (§3) Microsoft Excel Software was used to calculate the percentage of inhibition. The EC50 and CC50 values for the in vitro antiplasmodial activity were determined by non-linear regression analysis using GraphPad Prism 5.0 Software.
# [2] = system: murine macrophages Raw 264.7 cells; assay: Resazurin-based cytotoxicity assay, Raw 264.7 cells; conditions: for SI Raw Pf3D7: CC50 Raw / EC50 Pf3D7; for SI Raw (PfDd2): CC50 Raw / EC50 PfDd2
# Protocol: as §1, §2, §3
Compound,SI Vero Pf3D7 [1],SI Vero (PfDd2) [1],SI Raw Pf3D7 [2],SI Raw (PfDd2) [2]
"O=c1cc(-c2ccc(O)cc2)oc2cc(O)cc(O)c12 [Compound 1, apigenin]",> 9.73,> 11.29,> 9.73,> 11.29
"COc1c(O)cc2c(=O)oc3c(OC)c(O)cc4c(=O)oc1c2c34 [Compound 6, 3,3′-O-dimethylellagic acid]",> 35.48,> 111.41,> 35.48,> 111.41
